At least one structure is not confirmed: it was looked up by name or label, or the drawing left a doubt.
Test system: cyclooxygenase
Test: In vitro effect on [14C]arachidonic acid metabolism in a cell-free homogenate of murine pulmonary tissue
Assay type: biochemical, CBA mice
Settings: compound 10^−4 M
Protocol: Studies of arachidonic acid metabolism was carried out on females CBA mice who where fed a standard vivarium fodder. Animals (mice) were sacrificed, lungs were extracted, homogenized in a glass homogenizer manufactured by the firm “Wheaton” (USA) at 4° C. in 10 volumes of 0.05 M Tris-HCl buffer. Aliquots (0.5 ml) of supernatant were incubated in 0.5 μCi [1-C^14]-arachidonic acid [C^14]-AA, “Amersham”, England; specific activity 50-60 μCi/mmole) at 37° C. for 30 minutes. Non-metabolized [αC^14]-AA and products of metabolism thereof were extracted in 20 volumes of chloroform and methanol mixture (1:1) in extraction efficacy not less than 90% assessed using [C^14]-PGF2α. [C^14]-AA and metabolites thereof were separated and identified using TLC (the plates Kieselgel 60 of the “Merck” firm, Germany) using as an organic phase, the system of solvents (ethylacetate, isooctane, acetic acid, water—110:50:20:100) and labeled standards. Densitometry of autoradiochromograms obtained on the X-ray film X-Omat AR (“Kodak”, USA) and HS 11 (“ORWO”, Germany), was performed on the densiscan KS 3 (“Kipp and Zonnen”, Holland). Quantitative analysis of individual eicosanoids was carried out using radiometry of fractions obtained by high-performance liquid chromatography (the HPLC-system of the “Gilson” form, France; the column ZORBAX C8 of the “Du Pont” firm, USA) and by elution of spots on TLC-plates. The tested compounds were administered at concentration 10^−4 M.

O=C(Cc1ccc(O)cc1)NCCc1ccc(O)cc1 [Compound VII, p-hydroxyphenylacetyltyramine]
Prostanoids (37° C., 30 minutes, b308 reads these as % cyclooxygenase inhibition): −40
AA (arachidonic acid) (37° C., 30 minutes, change): +22
6-keto-PGF1α / PGF2α (first of only four cells in the row): −45
TXB2 / PGE2 (second of only four cells in the row): −32

Source: US8309766B2 (Obschestvo S. Organichennoi Otvetstvennostiyu …, priority 2005, dated 2012)
